# Plain letter strings leave the end groups untold.
# Assay: general procedure: Fmoc solid-phase peptide synthesis; Fmoc-Thr(tBu)-Wang resin (Novabiochem); DCC/HOBT (1:1)
# Conditions: whole synthesis, LC/MS on Waters Acquity HPLC-LCT Premier, scale of the general procedure 0.12 mmol equiv scale of the general procedure, several disulfide bridges, sequence written open
sequence,measurement,value
DTHFPICIFCCGCCHRSKCGMCCKT,final LC-MS purity,>95%

# Reference: US20130018176A1 (AMGEN INC., priority 2007, published 2013)
